# Data reported in patent publication US7705035B2, “Indoline amide derivatives as EP4 receptor ligands” (Merck Frosst Canada Ltd., priority 2006, dated 2010).
# Protein sequences, listed by entry. Tags and fused reporters are not part of them. Lines headed by an entry give the natural chain unless they say otherwise; changes in a name come on top.
# UniProt P35408: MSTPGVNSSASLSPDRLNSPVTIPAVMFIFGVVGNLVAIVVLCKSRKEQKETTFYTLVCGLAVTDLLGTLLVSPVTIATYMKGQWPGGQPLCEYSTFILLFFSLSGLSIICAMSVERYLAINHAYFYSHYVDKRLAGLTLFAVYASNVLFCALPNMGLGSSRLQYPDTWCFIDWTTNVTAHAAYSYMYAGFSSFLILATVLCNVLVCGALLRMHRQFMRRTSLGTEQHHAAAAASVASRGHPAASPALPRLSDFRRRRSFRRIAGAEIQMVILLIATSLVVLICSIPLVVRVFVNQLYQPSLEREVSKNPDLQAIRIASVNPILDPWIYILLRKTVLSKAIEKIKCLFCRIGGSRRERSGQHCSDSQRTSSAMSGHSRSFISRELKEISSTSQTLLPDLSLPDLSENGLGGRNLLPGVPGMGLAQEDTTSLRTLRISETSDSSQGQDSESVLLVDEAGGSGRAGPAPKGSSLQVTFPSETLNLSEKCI
# Some entries share one result that the patent states for a list of compounds. At least one compound was matched to its structure with a doubt left.
# Target: T1, EP4 receptor (Homo sapiens, UniProt P35408)
# T1 construct: expressed in transfected cells; membranes prepared by differential centrifugation
# Assay: Prostanoid receptor binding assay (EP4)
# Settings: radioligand binding, membranes of transfected HEK 293(ebna) cells, 10 mM MES/KOH pH 6.0
smiles,measurement,value
"O=C(NC1(c2ccc(-c3nnn[nH]3)cc2)CC1)c1cccc2c1N(Cc1ccc(Cl)c(Cl)c1)CC2 [Example 18, 1-(3,4-dichlorobenzyl)-N-{1-[4-(1H-tetrazol-5-yl)phenyl]cyclopropyl}indoline-7-carboxammide]",Ki,< 500 nM
